Article PMC5316870
These are yes or no findings as the source states them, for the method shown. In cells and extracts the contact can be indirect. These calls come from enrichment with a bait or labelling near it, and not all partners need be listed.

By UniProt entry, the sequences of proteins in these tests, tags left out.
UniProt O95863: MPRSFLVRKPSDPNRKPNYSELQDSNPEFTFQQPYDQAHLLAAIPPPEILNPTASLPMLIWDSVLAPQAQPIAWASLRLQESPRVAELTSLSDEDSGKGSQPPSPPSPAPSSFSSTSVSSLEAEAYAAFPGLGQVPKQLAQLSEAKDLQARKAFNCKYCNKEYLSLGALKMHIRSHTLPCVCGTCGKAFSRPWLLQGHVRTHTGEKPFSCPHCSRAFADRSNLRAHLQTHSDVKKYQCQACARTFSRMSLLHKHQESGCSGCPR
UniProt Q96KQ7: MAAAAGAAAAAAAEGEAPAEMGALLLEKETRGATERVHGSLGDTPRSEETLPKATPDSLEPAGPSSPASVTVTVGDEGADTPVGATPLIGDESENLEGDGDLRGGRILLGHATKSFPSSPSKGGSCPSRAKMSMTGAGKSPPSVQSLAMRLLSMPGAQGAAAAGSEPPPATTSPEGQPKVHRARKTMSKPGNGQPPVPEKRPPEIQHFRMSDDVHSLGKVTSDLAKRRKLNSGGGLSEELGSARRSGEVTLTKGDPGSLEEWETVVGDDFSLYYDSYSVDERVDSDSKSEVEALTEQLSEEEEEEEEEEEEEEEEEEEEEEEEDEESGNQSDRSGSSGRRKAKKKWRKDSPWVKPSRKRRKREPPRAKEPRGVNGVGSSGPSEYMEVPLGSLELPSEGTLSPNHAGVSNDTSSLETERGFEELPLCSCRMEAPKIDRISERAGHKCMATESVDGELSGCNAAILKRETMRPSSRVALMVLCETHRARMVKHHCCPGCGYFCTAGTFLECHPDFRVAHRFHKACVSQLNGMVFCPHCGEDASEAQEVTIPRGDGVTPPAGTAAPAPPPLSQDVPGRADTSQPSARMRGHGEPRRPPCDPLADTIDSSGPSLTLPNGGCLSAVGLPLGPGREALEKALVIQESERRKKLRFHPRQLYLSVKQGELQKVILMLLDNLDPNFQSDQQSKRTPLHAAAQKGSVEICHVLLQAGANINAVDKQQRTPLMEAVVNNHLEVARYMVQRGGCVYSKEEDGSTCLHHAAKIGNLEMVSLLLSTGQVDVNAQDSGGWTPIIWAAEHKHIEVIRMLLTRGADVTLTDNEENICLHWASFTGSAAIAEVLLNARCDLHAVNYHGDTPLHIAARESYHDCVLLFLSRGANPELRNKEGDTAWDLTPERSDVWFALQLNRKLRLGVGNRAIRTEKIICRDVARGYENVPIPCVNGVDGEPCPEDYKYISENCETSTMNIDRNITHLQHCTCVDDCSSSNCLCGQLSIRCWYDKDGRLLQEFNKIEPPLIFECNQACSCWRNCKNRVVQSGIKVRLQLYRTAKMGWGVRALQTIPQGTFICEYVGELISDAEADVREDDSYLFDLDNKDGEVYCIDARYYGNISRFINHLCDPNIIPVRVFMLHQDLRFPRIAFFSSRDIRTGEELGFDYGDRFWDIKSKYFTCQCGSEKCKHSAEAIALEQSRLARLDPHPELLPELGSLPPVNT

B1: Suv39H1 (protein, UniProt O43463 1-412)
chain: MAENLKGCSVCCKSSWNQLQDLCRLAKLSCPALGISKRNLYDFEVEYLCDYKKIREQEYYLVKWRGYPDSESTWEPRQNLKCVRILKQFHKDLERELLRRHHRSKTPRHLDPSLANYLVQKAKQRRALRRWEQELNAKRSHLGRITVENEVDLDGPPRAFVYINEYRVGEGITLNQVAVGCECQDCLWAPTGGCCPGASLHKFAYNDQGQVRLRAGLPIYECNSRCRCGYDCPNRVVQKGIRYDLCIFRTDDGRGWGVRTLEKIRKNSFVMEYVGEIITSEEAERRGQIYDRQGATYLFDLDYVEDVYTVDAAYYGNISHFVNHSCDPNLQVYNVFIDNLDERLPRIAFFATRTIRAGEELTFDYNMQVDPVDMESTRMDSNFGLAGLPGSPKKRVRIECKCGTESCRKYLF
B2: Dub3 (endogenous, HeLa S3) (enzyme, UniProt Q6R6M4 1-530)
chain: MEDDSLYLGGEWQFNHFSKLTSSRPDAAFAEIQRTSLPEKSPLSSEARVDLCDDLAPVARQLAPRKKLPLSSRRPAAVGAGLQNMGNTCYENASLQCLTYTPPLANYMLSREHSQTCQRPKCCMLCTMQAHITWALHSPGHVIQPSQALAAGFHRGKQEDAHEFLMFTVDAMKKACLPGHKQVDHHSKDTTLIHQIFGGCWRSQIKCLHCHGISDTFDPYLDIALDIQAAQSVKQALEQLVKPEELNGENAYHCGLCLQRAPASKTLTLHTSAKVLILVLKRFSDVTGNKLAKNVQYPECLDMQPYMSQQNTGPLVYVLYAVLVHAGWSCHDGHYFSYVKAQEGQWYKMDDAKVTACSITSVLSQQAYVLFYIQKSEWERHSESVSRGREPRALGAEDTDRRATQGELKRDHPCLQAPELDERLVERATQESTLDHWKFPQEQNKTKPEFNVRKVEGTLPPNVLVIHQSKYKCGMKNHHPEQQSSLLNLSSTTRTDQESVNTGTLASLQGRTRRSKGKNKHSKRALLVCQ

molecular target: Flag-Snail1 (expressed in HeLa S3 cells) (UniProt O95863); assay: affinity purification with mass spectrometry; Snail1 complexes purified from nuclear extracts of 20 l HeLa S3 cells expressing Flag-Snail1; immunocomplex separated on SDS-PAGE, mass spectrometry

binding, binds:
G9a (from UniProt Q96KQ7 1-1210), B1, B2
